# Experimental data from the supplement of paper PMC8728848.
# The list shows a part of the results.
# B1: Clec39 (Caenorhabditis elegans) (protein)
# chain: MTSFYDNSSSSSKPVPLKTSRAQKIQILIFDNWKLILYGAISTLILVLAIMFSTLFFALPAANCDENSEPTKYYTTNAEITTTITTTNQKTTSTASSHLTTISSSATQIYSESSSSSTSQSTFTQSPPEISTTTIAPSDFSCQHGFTLVNNKCWKLVTSNQARPDADKICNGYGGATLFSIKSEQDNRAMIHFVKGQDIDFLWSGLLCSAGEPISCIWDIENGSTANYSNFADGFPNIVYGNCVYFITSGDEAGQWGNEQCGQVMNFVCELPATFQGKDGCKNNYEKSCYLRFDLNLTVPQAQNFCLEKCANLVSIHSANEVRFIMTIYDFIGEILIGALAPAQDFIYWLDGTPANYNNLKFFYNSTCVHMTVAPGMQNVGKWFTRFCTETGKFLCKRSIKNSCT
# How the values were obtained:
# Experiment in all cases: glycan array binding signal (z-score within array); higher = stronger binding
# Conditions in all cases: glycan notation: IUPAC condensed, linker removed
# [1] = target: Gal(b1-4)GlcNAc(b1-2)[Gal(b1-4)GlcNAc(b1-6)]Man(a1-6)[GlcNAc(b1-4)][Gal(b1-4)GlcNAc(b1-2)Man(a1-3)]Man(b1-4)GlcNAc(b1-4)GlcNAc
# How it was run: (§1)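 Columns mapping to the same glycan were averaged after glycan names were converted to IUPAC-condensed notation. The data come from 3228 arrays in the Consortium for Functional Glycomics database, limited to those with an available protein sequence. Binding is reported as a within-array Z-score averaged across arrays of one protein sequence and across linkers.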
# [2] = target: Gal(b1-4)GlcNAc(b1-2)[Gal(b1-4)GlcNAc(b1-6)]Man(a1-6)[GlcNAc(b1-4)][Gal(b1-4)GlcNAc(b1-2)[Gal(b1-4)GlcNAc(b1-4)]Man(a1-3)]Man(b1-4)GlcNAc(b1-4)[Fuc(a1-6)]GlcNAc
# How it was run: as §1
# [3] = target: Gal(b1-4)GlcNAc(b1-3)Gal(b1-3)GalNAc
# How it was run: as §1
# [4] = target: Gal(b1-4)GlcNAc(b1-3)Gal(b1-3)GlcNAc
# How it was run: as §1
# [5] = target: Gal(b1-4)GlcNAc(b1-3)Gal(b1-4)Glc
# How it was run: as §1
# [6] = target: Gal(b1-4)GlcNAc(b1-3)Gal(b1-4)GlcNAc
# How it was run: as §1
# [7] = target: Gal(b1-4)GlcNAc(b1-3)Gal(b1-4)GlcNAc(b1-2)Man(a1-3)[Gal(b1-4)GlcNAc(b1-3)Gal(b1-4)GlcNAc(b1-2)Man(a1-6)]Man(b1-4)GlcNAc(b1-4)GlcNAc
# How it was run: as §1
# [8] = target: Gal(b1-4)GlcNAc(b1-3)Gal(b1-4)GlcNAc(b1-2)Man(a1-3)[Gal(b1-4)GlcNAc(b1-3)Gal(b1-4)GlcNAc(b1-2)Man(a1-6)]Man(b1-4)GlcNAc(b1-4)[Fuc(a1-6)]GlcNAc
# How it was run: as §1
# [9] = target: Gal(b1-4)GlcNAc(b1-3)Gal(b1-4)GlcNAc(b1-2)[Gal(b1-4)GlcNAc(b1-3)Gal(b1-4)GlcNAc(b1-6)]Man(a1-6)[Gal(b1-4)GlcNAc(b1-3)Gal(b1-4)GlcNAc(b1-2)Man(a1-3)]Man(b1-4)GlcNAc(b1-4)GlcNAc
# How it was run: as §1
# [10] = target: Gal(b1-4)GlcNAc(b1-3)Gal(b1-4)GlcNAc(b1-2)[Gal(b1-4)GlcNAc(b1-3)Gal(b1-4)GlcNAc(b1-6)]Man(a1-6)[Gal(b1-4)GlcNAc(b1-3)Gal(b1-4)GlcNAc(b1-2)Man(a1-3)]Man(b1-4)GlcNAc(b1-4)[Fuc(a1-6)]GlcNAc
# How it was run: as §1
# [11] = target: Gal(b1-4)GlcNAc(b1-3)Gal(b1-4)GlcNAc(b1-3)Gal(b1-4)GlcNAc
# How it was run: as §1
# [12] = target: Gal(b1-4)GlcNAc(b1-3)Gal(b1-4)GlcNAc(b1-3)Gal(b1-4)GlcNAc(b1-2)Man(a1-3)[Gal(b1-4)GlcNAc(b1-3)Gal(b1-4)GlcNAc(b1-3)Gal(b1-4)GlcNAc(b1-2)Man(a1-6)]Man(b1-4)GlcNAc(b1-4)GlcNAc
# How it was run: as §1
# [13] = target: Gal(b1-4)GlcNAc(b1-3)Gal(b1-4)GlcNAc(b1-3)Gal(b1-4)GlcNAc(b1-2)Man(a1-3)[Gal(b1-4)GlcNAc(b1-3)Gal(b1-4)GlcNAc(b1-3)Gal(b1-4)GlcNAc(b1-2)Man(a1-6)]Man(b1-4)GlcNAc(b1-4)[Fuc(a1-6)]GlcNAc
# How it was run: as §1
# [14] = target: Gal(b1-4)GlcNAc(b1-3)Gal(b1-4)GlcNAc(b1-3)Gal(b1-4)GlcNAc(b1-2)[Gal(b1-4)GlcNAc(b1-3)Gal(b1-4)GlcNAc(b1-3)Gal(b1-4)GlcNAc(b1-6)]Man(a1-6)[Gal(b1-4)GlcNAc(b1-3)Gal(b1-4)GlcNAc(b1-3)Gal(b1-4)GlcNAc(b1-2)Man(a1-3)]Man(b1-4)GlcNAc(b1-4)[Fuc(a1-6)]GlcNAc
# How it was run: as §1
# [15] = target: Gal(b1-4)GlcNAc(b1-3)Gal(b1-4)GlcNAc(b1-3)Gal(b1-4)GlcNAc(b1-3)Gal(b1-4)GlcNAc(b1-2)Man(a1-3)[Gal(b1-4)GlcNAc(b1-3)Gal(b1-4)GlcNAc(b1-3)Gal(b1-4)GlcNAc(b1-3)Gal(b1-4)GlcNAc(b1-2)Man(a1-6)]Man(b1-4)GlcNAc(b1-4)GlcNAc
# How it was run: as §1
# [16] = target: Gal(b1-4)GlcNAc(b1-3)Gal(b1-4)GlcNAc(b1-3)Gal(b1-4)GlcNAc(b1-3)Gal(b1-4)GlcNAc(b1-2)Man(a1-3)[Gal(b1-4)GlcNAc(b1-3)Gal(b1-4)GlcNAc(b1-3)Gal(b1-4)GlcNAc(b1-3)Gal(b1-4)GlcNAc(b1-2)Man(a1-6)]Man(b1-4)GlcNAc(b1-4)[Fuc(a1-6)]GlcNAc
# How it was run: as §1
# [17] = target: Gal(b1-4)GlcNAc(b1-3)Gal(b1-4)GlcNAc(b1-3)Gal(b1-4)GlcNAc(b1-3)Gal(b1-4)GlcNAc(b1-2)[Gal(b1-4)GlcNAc(b1-3)Gal(b1-4)GlcNAc(b1-3)Gal(b1-4)GlcNAc(b1-3)Gal(b1-4)GlcNAc(b1-6)]Man(a1-6)[Gal(b1-4)GlcNAc(b1-3)Gal(b1-4)GlcNAc(b1-3)Gal(b1-4)GlcNAc(b1-3)Gal(b1-4)GlcNAc(b1-2)Man(a1-3)]Man(b1-4)GlcNAc(b1-4)[Fuc(a1-6)]GlcNAc
# How it was run: as §1
# [18] = target: Gal(b1-4)GlcNAc(b1-3)Gal(b1-4)GlcNAc(b1-3)Gal(b1-4)GlcNAc(b1-3)Gal(b1-4)GlcNAc(b1-3)Gal(b1-4)GlcNAc(b1-2)Man(a1-3)[Gal(b1-4)GlcNAc(b1-3)Gal(b1-4)GlcNAc(b1-3)Gal(b1-4)GlcNAc(b1-3)Gal(b1-4)GlcNAc(b1-3)Gal(b1-4)GlcNAc(b1-2)Man(a1-6)]Man(b1-4)GlcNAc(b1-4)GlcNAc
# How it was run: as §1
# [19] = target: Gal(b1-4)GlcNAc(b1-3)Gal(b1-4)GlcNAc(b1-3)Gal(b1-4)GlcNAc(b1-3)Gal(b1-4)GlcNAc(b1-3)Gal(b1-4)GlcNAc(b1-2)Man(a1-3)[Gal(b1-4)GlcNAc(b1-3)Gal(b1-4)GlcNAc(b1-3)Gal(b1-4)GlcNAc(b1-3)Gal(b1-4)GlcNAc(b1-3)Gal(b1-4)GlcNAc(b1-2)Man(a1-6)]Man(b1-4)GlcNAc(b1-4)[Fuc(a1-6)]GlcNAc
# How it was run: as §1
# [20] = target: Gal(b1-4)GlcNAc(b1-3)Gal(b1-4)GlcNAc(b1-3)Gal(b1-4)GlcNAc(b1-3)Gal(b1-4)GlcNAc(b1-3)Gal(b1-4)GlcNAc(b1-2)[Gal(b1-4)GlcNAc(b1-3)Gal(b1-4)GlcNAc(b1-3)Gal(b1-4)GlcNAc(b1-3)Gal(b1-4)GlcNAc(b1-3)Gal(b1-4)GlcNAc(b1-6)]Man(a1-6)[Gal(b1-4)GlcNAc(b1-3)Gal(b1-4)GlcNAc(b1-3)Gal(b1-4)GlcNAc(b1-3)Gal(b1-4)GlcNAc(b1-3)Gal(b1-4)GlcNAc(b1-2)Man(a1-3)]Man(b1-4)GlcNAc(b1-4)[Fuc(a1-6)]GlcNAc
# How it was run: as §1
# [21] = target: Gal(b1-4)GlcNAc(b1-3)Gal(b1-4)GlcNAc(b1-3)Gal(b1-4)GlcNAc(b1-3)Gal(b1-4)GlcNAc(b1-3)Gal(b1-4)GlcNAc(b1-3)Gal(b1-4)GlcNAc(b1-2)Man(a1-3)[Gal(b1-4)GlcNAc(b1-3)Gal(b1-4)GlcNAc(b1-3)Gal(b1-4)GlcNAc(b1-3)Gal(b1-4)GlcNAc(b1-3)Gal(b1-4)GlcNAc(b1-3)Gal(b1-4)GlcNAc(b1-2)Man(a1-6)]Man(b1-4)GlcNAc(b1-4)GlcNAc
# How it was run: as §1
# [22] = target: Gal(b1-4)GlcNAc(b1-3)Gal(b1-4)GlcNAc(b1-3)GalNAc
# How it was run: as §1
# [23] = target: Gal(b1-4)GlcNAc(b1-3)Gal(b1-4)GlcNAc(b1-3)[Gal(b1-4)GlcNAc(b1-3)Gal(b1-4)GlcNAc(b1-6)]GalNAc
# How it was run: as §1
# [24] = target: Gal(b1-4)GlcNAc(b1-3)Gal(b1-4)GlcNAc(b1-6)[Gal(b1-3)]GalNAc
# How it was run: as §1
# [25] = target: Gal(b1-4)GlcNAc(b1-3)Gal(b1-4)[Fuc(a1-3)]GlcNAc(b1-3)Gal(b1-4)[Fuc(a1-3)]GlcNAc
# How it was run: as §1
# [26] = target: Gal(b1-4)GlcNAc(b1-3)GalNAc
# How it was run: as §1
# [27] = target: Gal(b1-4)GlcNAc(b1-3)[Fuc(a1-3)GlcNAc(b1-6)]Gal(b1-4)Glc
# How it was run: as §1
# [28] = target: Gal(b1-4)GlcNAc(b1-3)[Gal(b1-4)GlcNAc(b1-6)]Gal(b1-4)GlcNAc
# How it was run: as §1
# [29] = target: Gal(b1-4)GlcNAc(b1-3)[GlcNAc(b1-6)]Gal(b1-4)GlcNAc
# How it was run: as §1
# [30] = target: Gal(b1-4)GlcNAc(b1-6)Gal(b1-4)GlcNAc
# How it was run: as §1
# [31] = target: Gal(b1-4)GlcNAc(b1-6)GalNAc
# How it was run: as §1
# [32] = target: Gal(b1-4)GlcNAc(b1-6)[Gal(b1-3)]GalNAc
# How it was run: as §1
# [33] = target: Gal(b1-4)GlcNAc(b1-6)[Gal(b1-4)GlcNAc(b1-3)]GalNAc
# How it was run: as §1
# Gal(b1-4)GlcNAc6P = target: Gal(b1-4)GlcNAc6P
# How it was run: as §1
# Gal(b1-6)Gal = target: Gal(b1-6)Gal
# How it was run: as §1
# Gal3S(b1-3)GalNAc = target: Gal3S(b1-3)GalNAc
# How it was run: as §1
# Gal3S(b1-3)GlcNAc = target: Gal3S(b1-3)GlcNAc
# How it was run: as §1
# [34] = target: Gal3S(b1-3)[Fuc(a1-4)]GlcNAc
# How it was run: as §1
binder,measurement,setting,value
B1,glycan array binding signal (z-score),[1],0.154
same,glycan array binding signal (z-score),[2],1.43
same,glycan array binding signal (z-score),[3],-0.537
same,glycan array binding signal (z-score),[4],-0.657
same,glycan array binding signal (z-score),[5],0.801
same,glycan array binding signal (z-score),[6],0.14
same,glycan array binding signal (z-score),[7],0.623
same,glycan array binding signal (z-score),[8],1.46
same,glycan array binding signal (z-score),[9],0.982
same,glycan array binding signal (z-score),[10],0.173
same,glycan array binding signal (z-score),[11],-0.007
same,glycan array binding signal (z-score),[12],0.198
same,glycan array binding signal (z-score),[13],-0.521
same,glycan array binding signal (z-score),[14],0.201
same,glycan array binding signal (z-score),[15],1.3
same,glycan array binding signal (z-score),[16],1.98
same,glycan array binding signal (z-score),[17],-0.037
same,glycan array binding signal (z-score),[18],3.63
same,glycan array binding signal (z-score),[19],1.01
same,glycan array binding signal (z-score),[20],1.56
same,glycan array binding signal (z-score),[21],-0.636
same,glycan array binding signal (z-score),[22],0.853
same,glycan array binding signal (z-score),[23],-0.36
same,glycan array binding signal (z-score),[24],0.593
same,glycan array binding signal (z-score),[25],-0.298
same,glycan array binding signal (z-score),[26],0.504
same,glycan array binding signal (z-score),[27],-0.645
same,glycan array binding signal (z-score),[28],-0.864
same,glycan array binding signal (z-score),[29],-0.859
same,glycan array binding signal (z-score),[30],-1.37
same,glycan array binding signal (z-score),[31],-0.057
same,glycan array binding signal (z-score),[32],-0.112
same,glycan array binding signal (z-score),[33],5.43
same,glycan array binding signal (z-score),Gal(b1-4)GlcNAc6P,-0.183
same,glycan array binding signal (z-score),Gal(b1-6)Gal,-0.588
same,glycan array binding signal (z-score),Gal3S(b1-3)GalNAc,-0.265
same,glycan array binding signal (z-score),Gal3S(b1-3)GlcNAc,-0.524
same,glycan array binding signal (z-score),[34],-0.33

# No new results follow: an excerpt of the list.
binder,measurement,setting,value
B1,glycan array binding signal (z-score),[16],1.98
same,glycan array binding signal (z-score),[17],-0.037
